Reference: US12662531B2, “CLDN18.2 antibody and use thereof” (FUTUREGEN BIOPHARMACEUTICAL (BEIJING) CO., LTD., priority 2019, dated 2026)
Positions count from the first letter of the chain named. Some of these results come from one statement about several compounds together. Some compounds share one range, which may span the group rather than tell each member.

B1: 18.2-A1: recombinant monoclonal CLDN18.2 antibody, VH SEQ ID NO: 1, VL SEQ ID NO: 6 (antibody, V domains shown)
VH: EVQLVQSGAEVKKPGASVKVSCKASGYTFTSSWLIWVRQAPGQGLEWIGTIVPSDSYTNYNQKFKDRATLTVDKSTSTAYMELSSLRSEDTAVYYCTRFRTGNSFDYWGQGTLVTVSS
VL: DIVMTQSPDSLSVGLGERATINCKSSQSVLNSGNQKNYLTWYQQKPGQPPKLLIYWAVARQSGVPDRFSGSGSGTDFTLTISSLQAEDVAVYYCQNSIAYPFTFGQGTKVEIK
modifications: 18.2-A1 VH; 18.2-A1 VL
B2: 18.2-A4: recombinant monoclonal CLDN18.2 antibody, VH SEQ ID NO: 31, VL SEQ ID NO: 36 (antibody, V domains shown)
VH: B1 VH with S32F, L34I, I35S, T50N, V52L, F99Y, R100W, T101R
VL: DIVMTQSPDSLALALGERATINCKSSQSIINSGNQKNYLTWYQQKPGQPPKLLIYWGGTRHSGVPDRFSGSGSGTDFTLTISSLQAEDVAVYYCQNGYYSPFTFGQGTKVEIK
modifications: 18.2-A4 VH; 18.2-A4 VL

Assays:
[1] = system: SNU601-CLDN18.2 target cells; experiment: ADCC killing of SNU601-CLDN18.2 cells with human PBMC, LDH assay; format: cell-based; details: effector:target 50:1, 24 hours
[2] = system: HELA cells stably expressing CLDN18.2; experiment: CDC activity, CCK8 cell lysis with human serum; format: cell-based; details: 37° C. 2 hours

Molecule | maximum killing rate (ADCC) [1] | maximum killing rate against target cells (CDC) [2] [%]
B1 | 80-90% | > 95
B2 |  | > 95
